The text below walks through data of PMC11914548.

Test [1] addresses T1, beaded filament structural protein 1 (BFSP1), endogenous in liver cancer cells (human (endogenous in liver cancer cell lines)) (UniProt Q12934).
T1 sequence: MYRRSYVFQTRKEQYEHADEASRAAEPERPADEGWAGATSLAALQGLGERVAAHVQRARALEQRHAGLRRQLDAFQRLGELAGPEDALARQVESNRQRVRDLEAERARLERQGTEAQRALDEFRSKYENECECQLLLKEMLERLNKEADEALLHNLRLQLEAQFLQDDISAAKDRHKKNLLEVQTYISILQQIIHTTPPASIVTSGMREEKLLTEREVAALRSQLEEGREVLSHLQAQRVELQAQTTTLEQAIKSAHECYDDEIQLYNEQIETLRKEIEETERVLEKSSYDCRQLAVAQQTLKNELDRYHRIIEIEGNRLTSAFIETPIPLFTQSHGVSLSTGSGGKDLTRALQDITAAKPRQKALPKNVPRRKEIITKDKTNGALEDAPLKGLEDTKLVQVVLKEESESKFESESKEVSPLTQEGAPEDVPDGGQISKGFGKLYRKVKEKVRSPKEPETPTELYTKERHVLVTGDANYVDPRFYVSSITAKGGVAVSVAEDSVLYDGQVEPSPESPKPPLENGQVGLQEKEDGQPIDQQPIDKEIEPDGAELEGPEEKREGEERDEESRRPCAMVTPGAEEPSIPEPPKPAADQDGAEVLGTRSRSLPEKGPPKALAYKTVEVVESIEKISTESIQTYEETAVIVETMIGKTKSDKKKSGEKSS
As to the kind of experiment: co-IP; lysate of 5 x 10^6 liver cancer cells, pre-cleared with IgG and protein A/G beads, anti-BFSP1 or anti-TMOD4 overnight at 4 °C, magnetic beads, Western blot.

Test [2] concerns the target T2, BFSP1 as used in the GST pull-down (UniProt Q12934).
T2 sequence: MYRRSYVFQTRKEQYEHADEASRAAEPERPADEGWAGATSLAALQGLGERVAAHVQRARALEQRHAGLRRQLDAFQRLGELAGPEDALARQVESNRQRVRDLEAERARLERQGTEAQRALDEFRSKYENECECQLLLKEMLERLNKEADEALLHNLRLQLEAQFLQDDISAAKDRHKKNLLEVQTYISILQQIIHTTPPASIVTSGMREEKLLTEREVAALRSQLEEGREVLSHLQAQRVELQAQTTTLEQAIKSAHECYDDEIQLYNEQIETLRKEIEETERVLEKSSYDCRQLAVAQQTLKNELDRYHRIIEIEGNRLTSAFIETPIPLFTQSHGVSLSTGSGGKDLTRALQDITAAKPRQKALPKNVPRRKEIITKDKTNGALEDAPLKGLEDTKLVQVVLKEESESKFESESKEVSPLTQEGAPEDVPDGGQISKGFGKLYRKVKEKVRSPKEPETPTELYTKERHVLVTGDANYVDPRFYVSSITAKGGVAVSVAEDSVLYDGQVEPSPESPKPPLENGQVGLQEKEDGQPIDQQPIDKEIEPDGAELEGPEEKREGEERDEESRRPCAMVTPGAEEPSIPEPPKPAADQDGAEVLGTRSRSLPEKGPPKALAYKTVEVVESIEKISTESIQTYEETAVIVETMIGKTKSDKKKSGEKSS
As to the kind of experiment: pull-down; GST pull-down; no methods given, GST-tagged partner not stated.

No constants are given. Whether binding was seen depends on the method and setting. Binding seen in cells or lysates may run through a third protein. Some binding calls cover weakened binding; strength is not graded here. For some assays here: Where a sequence is shown, tags or fusion partners need not be part of it.

B1: tropomodulin 4 (TMOD4), endogenous in liver cancer cells (protein, UniProt Q9NZQ9 1-345)
chain: MSSYQKELEKYRDIDEDEILRTLSPEELEQLDCELQEMDPENMLLPAGLRQRDQTKKSPTGPLDREALLQYLEQQALEVKERDDLVPFTGEKKGKPYIQPKREIPAEEQITLEPELEEALAHATDAEMCDIAAILDMYTLMSNKQYYDALCSGEICNTEGISSVVQPDKYKPVPDEPPNPTNIEEILKRVRSNDKELEEVNLNNIQDIPIPMLSELCEAMKANTYVRSFSLVATRSGDPIANAVADMLRENRSLQSLNIESNFISSTGLMAVLKAVRENATLTELRVDNQRQWPGDAVEMEMATVLEQCPSIVRFGYHFTQQGPRARAAQAMTRNNELRRQQKKR
For the molecule B1, the binding entry in test [1] is on record as “binds”.

B2: TMOD4 as used in the GST pull-down (protein, UniProt Q9NZQ9 1-345)
chain: MSSYQKELEKYRDIDEDEILRTLSPEELEQLDCELQEMDPENMLLPAGLRQRDQTKKSPTGPLDREALLQYLEQQALEVKERDDLVPFTGEKKGKPYIQPKREIPAEEQITLEPELEEALAHATDAEMCDIAAILDMYTLMSNKQYYDALCSGEICNTEGISSVVQPDKYKPVPDEPPNPTNIEEILKRVRSNDKELEEVNLNNIQDIPIPMLSELCEAMKANTYVRSFSLVATRSGDPIANAVADMLRENRSLQSLNIESNFISSTGLMAVLKAVRENATLTELRVDNQRQWPGDAVEMEMATVLEQCPSIVRFGYHFTQQGPRARAAQAMTRNNELRRQQKKR
As to B2, the binding entry in test [2] is given as “binds”.
